Consider 22 targets from the supplement of paper PMC12067093, “Discovery and optimisation of a covalent ligand for TRIM25 and its application to targeted protein ubiquitination” (Chemical Science, 2025).

By UniProt entry, the sequences of proteins in these tests, tags left out. Where a name states a change or a piece, a line headed by the entry shows the natural chain unless it says otherwise.
UniProt Q9NRL2: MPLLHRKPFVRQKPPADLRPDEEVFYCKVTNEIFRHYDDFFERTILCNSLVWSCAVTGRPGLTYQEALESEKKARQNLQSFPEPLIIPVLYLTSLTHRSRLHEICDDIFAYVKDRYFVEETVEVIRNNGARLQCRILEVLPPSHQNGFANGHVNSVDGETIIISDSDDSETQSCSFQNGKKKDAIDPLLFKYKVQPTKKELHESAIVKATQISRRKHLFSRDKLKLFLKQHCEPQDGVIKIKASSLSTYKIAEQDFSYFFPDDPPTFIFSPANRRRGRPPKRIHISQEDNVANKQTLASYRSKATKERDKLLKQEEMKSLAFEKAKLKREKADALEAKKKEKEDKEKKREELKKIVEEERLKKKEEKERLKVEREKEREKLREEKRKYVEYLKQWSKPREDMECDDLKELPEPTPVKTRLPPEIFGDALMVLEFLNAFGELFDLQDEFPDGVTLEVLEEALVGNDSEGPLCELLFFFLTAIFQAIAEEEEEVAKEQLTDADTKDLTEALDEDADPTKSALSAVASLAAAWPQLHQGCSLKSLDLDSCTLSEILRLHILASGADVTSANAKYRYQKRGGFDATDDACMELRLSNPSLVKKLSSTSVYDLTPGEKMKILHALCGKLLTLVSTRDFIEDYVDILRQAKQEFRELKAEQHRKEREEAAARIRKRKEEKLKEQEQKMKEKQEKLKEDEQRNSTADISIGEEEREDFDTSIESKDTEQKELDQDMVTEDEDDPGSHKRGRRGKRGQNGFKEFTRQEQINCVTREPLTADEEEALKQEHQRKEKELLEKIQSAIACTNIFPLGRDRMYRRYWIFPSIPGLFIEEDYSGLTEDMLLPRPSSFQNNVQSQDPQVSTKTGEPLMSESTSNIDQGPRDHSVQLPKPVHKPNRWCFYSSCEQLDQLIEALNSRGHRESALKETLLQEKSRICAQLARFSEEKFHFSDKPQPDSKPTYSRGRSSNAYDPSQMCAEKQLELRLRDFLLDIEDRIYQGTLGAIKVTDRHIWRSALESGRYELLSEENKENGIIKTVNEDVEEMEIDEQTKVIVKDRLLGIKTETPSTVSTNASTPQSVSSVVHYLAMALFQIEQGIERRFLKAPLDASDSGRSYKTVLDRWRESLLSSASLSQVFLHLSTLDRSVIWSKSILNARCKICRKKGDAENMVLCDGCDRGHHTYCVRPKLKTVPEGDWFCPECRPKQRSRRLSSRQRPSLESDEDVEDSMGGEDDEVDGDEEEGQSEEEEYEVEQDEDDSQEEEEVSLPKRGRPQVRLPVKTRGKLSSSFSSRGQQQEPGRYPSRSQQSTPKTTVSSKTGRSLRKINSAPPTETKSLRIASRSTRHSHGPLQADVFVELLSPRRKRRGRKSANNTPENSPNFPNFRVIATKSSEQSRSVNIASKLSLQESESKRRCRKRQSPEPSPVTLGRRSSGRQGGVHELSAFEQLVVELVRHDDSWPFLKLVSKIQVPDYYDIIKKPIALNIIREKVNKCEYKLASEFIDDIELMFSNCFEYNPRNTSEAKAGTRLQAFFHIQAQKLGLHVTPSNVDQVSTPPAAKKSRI
UniProt P21953: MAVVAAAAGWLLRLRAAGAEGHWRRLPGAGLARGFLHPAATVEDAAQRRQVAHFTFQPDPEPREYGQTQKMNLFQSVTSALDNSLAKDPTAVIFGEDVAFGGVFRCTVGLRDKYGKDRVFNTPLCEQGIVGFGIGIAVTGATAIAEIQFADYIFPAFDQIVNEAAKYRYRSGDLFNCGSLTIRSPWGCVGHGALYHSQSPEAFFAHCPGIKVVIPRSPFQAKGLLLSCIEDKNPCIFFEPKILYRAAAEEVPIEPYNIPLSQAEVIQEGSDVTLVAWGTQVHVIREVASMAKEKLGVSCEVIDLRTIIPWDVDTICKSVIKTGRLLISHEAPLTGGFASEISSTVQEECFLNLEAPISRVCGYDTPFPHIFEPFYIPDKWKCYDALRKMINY
UniProt P15291: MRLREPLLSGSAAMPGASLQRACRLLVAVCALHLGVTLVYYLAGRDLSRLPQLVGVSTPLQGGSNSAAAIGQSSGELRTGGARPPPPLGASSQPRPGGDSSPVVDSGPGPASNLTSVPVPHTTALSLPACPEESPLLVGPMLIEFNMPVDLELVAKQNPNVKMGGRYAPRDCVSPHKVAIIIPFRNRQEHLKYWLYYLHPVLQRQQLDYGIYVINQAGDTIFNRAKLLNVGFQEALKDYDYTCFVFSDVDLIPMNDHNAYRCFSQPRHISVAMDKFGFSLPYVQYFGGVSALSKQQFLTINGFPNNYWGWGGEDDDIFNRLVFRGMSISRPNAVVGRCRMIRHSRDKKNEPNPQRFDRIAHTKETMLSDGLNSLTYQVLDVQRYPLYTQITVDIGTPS
UniProt Q9UQB8: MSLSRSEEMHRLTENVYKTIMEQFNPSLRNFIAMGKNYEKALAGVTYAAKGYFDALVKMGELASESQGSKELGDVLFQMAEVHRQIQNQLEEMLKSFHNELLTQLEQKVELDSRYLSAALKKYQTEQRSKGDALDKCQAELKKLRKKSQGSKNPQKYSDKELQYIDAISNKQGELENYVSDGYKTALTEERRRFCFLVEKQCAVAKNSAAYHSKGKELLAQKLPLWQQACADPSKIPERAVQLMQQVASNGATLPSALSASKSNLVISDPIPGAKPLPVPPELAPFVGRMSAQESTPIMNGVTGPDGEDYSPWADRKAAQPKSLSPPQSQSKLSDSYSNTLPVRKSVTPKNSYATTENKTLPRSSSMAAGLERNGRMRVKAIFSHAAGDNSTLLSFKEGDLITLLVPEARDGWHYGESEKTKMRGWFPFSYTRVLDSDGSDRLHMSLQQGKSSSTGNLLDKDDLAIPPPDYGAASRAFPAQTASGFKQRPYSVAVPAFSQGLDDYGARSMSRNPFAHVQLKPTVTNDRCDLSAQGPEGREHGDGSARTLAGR
UniProt Q9UBB4: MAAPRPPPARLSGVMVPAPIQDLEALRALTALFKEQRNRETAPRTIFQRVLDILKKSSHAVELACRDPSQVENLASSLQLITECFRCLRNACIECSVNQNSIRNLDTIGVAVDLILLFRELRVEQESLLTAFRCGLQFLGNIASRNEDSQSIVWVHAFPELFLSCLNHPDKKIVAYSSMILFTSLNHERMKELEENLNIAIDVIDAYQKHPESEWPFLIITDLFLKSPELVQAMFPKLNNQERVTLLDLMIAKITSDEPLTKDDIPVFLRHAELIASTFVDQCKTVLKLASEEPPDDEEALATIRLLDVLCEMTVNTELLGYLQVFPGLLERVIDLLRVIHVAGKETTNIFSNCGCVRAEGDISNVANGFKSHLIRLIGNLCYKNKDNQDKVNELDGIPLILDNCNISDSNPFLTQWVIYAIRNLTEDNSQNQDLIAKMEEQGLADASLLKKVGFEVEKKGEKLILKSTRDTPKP
UniProt Q96L58: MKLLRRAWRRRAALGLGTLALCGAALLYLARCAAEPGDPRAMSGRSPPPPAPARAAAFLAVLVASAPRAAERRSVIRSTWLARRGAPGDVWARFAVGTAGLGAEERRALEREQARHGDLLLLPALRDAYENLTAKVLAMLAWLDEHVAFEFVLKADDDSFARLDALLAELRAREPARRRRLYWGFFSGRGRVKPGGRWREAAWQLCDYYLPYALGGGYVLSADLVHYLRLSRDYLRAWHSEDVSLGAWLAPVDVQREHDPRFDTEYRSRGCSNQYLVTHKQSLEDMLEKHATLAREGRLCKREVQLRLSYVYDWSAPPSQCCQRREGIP
UniProt Q9NYF8, whole entry, looked up: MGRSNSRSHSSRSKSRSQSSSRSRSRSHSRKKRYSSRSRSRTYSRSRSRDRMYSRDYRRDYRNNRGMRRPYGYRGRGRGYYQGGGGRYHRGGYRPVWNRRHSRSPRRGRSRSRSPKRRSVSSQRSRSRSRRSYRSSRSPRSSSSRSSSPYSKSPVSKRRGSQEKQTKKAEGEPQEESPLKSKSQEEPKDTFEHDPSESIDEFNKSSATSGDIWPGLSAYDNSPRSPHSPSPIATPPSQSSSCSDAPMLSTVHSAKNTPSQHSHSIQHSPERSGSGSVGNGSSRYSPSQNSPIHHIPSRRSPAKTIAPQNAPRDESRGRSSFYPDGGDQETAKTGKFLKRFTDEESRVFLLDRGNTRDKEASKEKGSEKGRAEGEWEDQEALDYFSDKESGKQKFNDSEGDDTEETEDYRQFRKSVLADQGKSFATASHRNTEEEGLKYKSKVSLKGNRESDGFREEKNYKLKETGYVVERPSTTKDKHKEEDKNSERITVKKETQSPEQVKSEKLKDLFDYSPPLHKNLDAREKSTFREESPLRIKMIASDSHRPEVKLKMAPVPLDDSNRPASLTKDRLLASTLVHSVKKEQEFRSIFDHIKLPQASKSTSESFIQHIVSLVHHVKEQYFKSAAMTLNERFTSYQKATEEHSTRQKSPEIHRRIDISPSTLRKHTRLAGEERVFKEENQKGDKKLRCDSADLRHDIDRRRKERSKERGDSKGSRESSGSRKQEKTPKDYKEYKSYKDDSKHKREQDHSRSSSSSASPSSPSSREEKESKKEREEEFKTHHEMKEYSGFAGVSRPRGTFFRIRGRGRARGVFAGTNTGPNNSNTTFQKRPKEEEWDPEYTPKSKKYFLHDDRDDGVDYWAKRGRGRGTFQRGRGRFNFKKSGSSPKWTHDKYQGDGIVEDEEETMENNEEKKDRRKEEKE
UniProt O95861: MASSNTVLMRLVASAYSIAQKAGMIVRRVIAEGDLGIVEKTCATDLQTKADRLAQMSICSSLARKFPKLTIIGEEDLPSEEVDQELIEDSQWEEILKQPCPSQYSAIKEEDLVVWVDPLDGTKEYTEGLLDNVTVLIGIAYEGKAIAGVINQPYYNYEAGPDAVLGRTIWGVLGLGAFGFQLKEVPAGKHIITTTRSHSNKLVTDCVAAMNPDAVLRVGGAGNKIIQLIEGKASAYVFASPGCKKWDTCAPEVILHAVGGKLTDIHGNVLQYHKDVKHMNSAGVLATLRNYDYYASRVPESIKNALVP
UniProt Q9H6S1, whole entry: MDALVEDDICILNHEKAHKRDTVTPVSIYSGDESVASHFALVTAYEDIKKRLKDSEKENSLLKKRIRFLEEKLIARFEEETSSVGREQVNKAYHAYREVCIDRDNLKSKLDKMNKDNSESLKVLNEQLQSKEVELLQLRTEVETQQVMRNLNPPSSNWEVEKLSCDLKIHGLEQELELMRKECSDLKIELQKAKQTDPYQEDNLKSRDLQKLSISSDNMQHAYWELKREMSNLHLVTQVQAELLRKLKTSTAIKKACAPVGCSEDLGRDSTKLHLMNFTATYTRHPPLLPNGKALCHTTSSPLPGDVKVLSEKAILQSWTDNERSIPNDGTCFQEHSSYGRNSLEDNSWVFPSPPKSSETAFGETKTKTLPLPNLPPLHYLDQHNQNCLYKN
UniProt Q99933: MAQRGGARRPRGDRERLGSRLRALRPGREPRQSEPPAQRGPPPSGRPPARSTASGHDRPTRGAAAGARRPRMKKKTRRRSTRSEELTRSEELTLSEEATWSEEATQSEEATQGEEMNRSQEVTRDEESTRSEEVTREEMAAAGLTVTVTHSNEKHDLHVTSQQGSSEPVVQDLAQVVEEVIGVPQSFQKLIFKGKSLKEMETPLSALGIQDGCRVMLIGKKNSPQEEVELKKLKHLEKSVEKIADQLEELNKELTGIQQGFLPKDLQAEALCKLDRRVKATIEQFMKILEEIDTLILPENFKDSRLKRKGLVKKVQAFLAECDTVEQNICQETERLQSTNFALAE
UniProt Q6QNY0: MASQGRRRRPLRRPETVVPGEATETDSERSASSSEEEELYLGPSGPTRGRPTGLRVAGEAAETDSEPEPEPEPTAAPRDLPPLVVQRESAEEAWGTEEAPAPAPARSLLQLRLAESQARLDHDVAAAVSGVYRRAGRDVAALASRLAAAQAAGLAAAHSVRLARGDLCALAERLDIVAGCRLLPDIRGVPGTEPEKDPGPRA

Compound in this assay: CC1Cc2ccccc2N1C(=O)C1CCCN(C1)C(=O)CCl (mixture of isomers) [TRIM25 ligand 11 (diastereomer mixture)]
In words: probe-labelled cysteine peptide fold change vs DMSO (competition) (log2 fold change); higher = less target engagement (more negative = stronger competition). The following applies: THP-1, incubation time: 4 h.

The other results are listed elsewhere or left out.
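Further: competitive chemoproteomic profiling in live THP-1 cells with an iodoacetamide desthiobiotin (IA-DTB) probe, comparing probe-labelled peptide intensities in compound-treated cells against DMSO-treated controls.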

Regarding “BAZ2A_Q9UIF9_917_AALHDPGFPSYCQSLK (UniProt Q9UIF9)”, the “probe-labelled cysteine peptide fold change” value turned out to be 0.114 (10 µM) and 0.0126 (50 µM).
Turning to “BAZ1A_Q9NRL2_547_SLDLDSCTLSEILR (UniProt Q9NRL2)”, the “probe-labelled cysteine peptide fold change” value by setting is: (10 µM) -0.0105; (50 µM) 0.0488.
Consider “BCKDHB_P21953_361_VCGYDTPFPHIFEPFYIPDK (UniProt P21953)”, for which the “probe-labelled cysteine peptide fold change” value is 0.0222 (10 µM) and -0.0397 (50 µM).
For “B4GALT1_P15291_262_CFSQPR (UniProt P15291)” the same measures were 0.284 and 0.173.
In the same order, the values of “BAIAP2_Q9UQB8_195_FCFLVEK (UniProt Q9UQB8)” are -0.0569 and -0.212.
For the target “BAZ2A_Q9UIF9_828_KPTEDMCLTDHQPLPDFSR (UniProt Q9UIF9)”, the “probe-labelled cysteine peptide fold change” value (10 µM) turned out to be 0.113 and the “probe-labelled cysteine peptide fold change” value (50 µM) was -0.145.
For “ATXN10_Q9UBB4_134_CGLQFLGNIASR (UniProt Q9UBB4)”, the “probe-labelled cysteine peptide fold change” value is 0.0956 (10 µM) and 0.534 (50 µM).
For “BIRC6_Q9NR09_874_IQHIKDPQDTITSLILLPPDILDNREDDCEEPIEDMQLTSK (UniProt Q9NR09)”, the “probe-labelled cysteine peptide fold change” value (10 µM) is -0.0682 and the “probe-labelled cysteine peptide fold change” value (50 µM) was -0.286.
In the case of “B3GALT6_Q96L58_271_GCSNQYLVTHK (UniProt Q96L58)”, the “probe-labelled cysteine peptide fold change” value is, setting by setting: (10 µM) 0.00219; (50 µM) -0.0349.
As for “BAZ1B_Q9UIG0_120_YAVGEECDFEVGK (UniProt Q9UIG0)”, the “probe-labelled cysteine peptide fold change” value is, setting by setting: (10 µM) -0.0349; (50 µM) -0.0339.
For “BIRC6_Q9NR09_4601_CDEERLDIMK (UniProt Q9NR09)” the same measures were -0.138 and -0.0807.
For “BCLAF1_Q9NYF8_688_CDSADLR (UniProt Q9NYF8)” the same measures were -0.0386 and -0.103.
For “BAZ1B_Q9UIG0_994_QGQNLWFLCDSQK (UniProt Q9UIG0)” the same measures were -0.0254 and -0.0149.
For “BCKDK_O14874_152_DQADEAQYCQLVR (UniProt O14874)”, the “probe-labelled cysteine peptide fold change” value (10 µM) came to 0.0646 and the “probe-labelled cysteine peptide fold change” value (50 µM) was -0.0605.
For “BPNT1_O95861_42_TCATDLQTK (UniProt O95861)” the same measures were -0.0574 and -0.188.
For the target “AZI2_Q9H6S1_10_MDALVEDDICILNHEK (UniProt Q9H6S1)”, the “probe-labelled cysteine peptide fold change” value is -0.0982 (10 µM) and -0.142 (50 µM).
With “BAG1_Q99933_322_VQAFLAECDTVEQNICQETER (UniProt Q99933)”, the “probe-labelled cysteine peptide fold change” value (10 µM) is -0.219 and the “probe-labelled cysteine peptide fold change” value (50 µM) was -0.0595.
Take “BLOC1S3_Q6QNY0_168_GDLCALAER (UniProt Q6QNY0)”: the “probe-labelled cysteine peptide fold change” value is -0.209 (10 µM) and -0.549 (50 µM).
Regarding “BAZ1A_Q9NRL2_764_QEQINCVTR (UniProt Q9NRL2)”, the “probe-labelled cysteine peptide fold change” value runs as follows: (10 µM) 0.0723; (50 µM) -0.101.
In the same order, the values of “BAZ2A_Q9UIF9_1802_NHHSDLTFCEIILMEMESHDAAWPFLEPVNPR (UniProt Q9UIF9)” are 0.0252 and -0.15.
Take “BAG1_Q99933_330_KVQAFLAECDTVEQNICQETER (UniProt Q99933)”: the “probe-labelled cysteine peptide fold change” value by setting is: (10 µM) -0.0556; (50 µM) -0.1.
On to “BAZ1B_Q9UIG0_1213_AFHLFCLRPALYEVPDGEWQCPACQPATAR (UniProt Q9UIG0)”, for which the “probe-labelled cysteine peptide fold change” value (10 µM) stood at 0.117 and the “probe-labelled cysteine peptide fold change” value (50 µM) is -0.0991.
